Experimental data as given in patent US20040229205A1, “Compositions for the storage of platelets” (priority 2003, published 2004).

Test system: platelet concentrates
Test: pH and lactate of stored platelet concentrates

SMILES	pH of platelet concentrate (15 mM D-Ribose, by four days of storage)	pH of platelet concentrate (about 150 nM D-Ribose)	pH change versus controls (1.5 mM down to 150 pM, analyzed every 24 hours)
O=C[C@H](O)[C@H](O)[C@H](O)CO [D-Ribose]	6.0	pH remains constant	–
O=C(CO)[C@H](O)[C@H](O)COP(=O)(O)O [Ribulose-5-phosphate]	–	–	No difference from controls
